The results in this text go back to PMC4574921.

By UniProt entry, the sequences of proteins in these tests, tags left out. Residues count along the entry.
UniProt P02769, residues 25-607: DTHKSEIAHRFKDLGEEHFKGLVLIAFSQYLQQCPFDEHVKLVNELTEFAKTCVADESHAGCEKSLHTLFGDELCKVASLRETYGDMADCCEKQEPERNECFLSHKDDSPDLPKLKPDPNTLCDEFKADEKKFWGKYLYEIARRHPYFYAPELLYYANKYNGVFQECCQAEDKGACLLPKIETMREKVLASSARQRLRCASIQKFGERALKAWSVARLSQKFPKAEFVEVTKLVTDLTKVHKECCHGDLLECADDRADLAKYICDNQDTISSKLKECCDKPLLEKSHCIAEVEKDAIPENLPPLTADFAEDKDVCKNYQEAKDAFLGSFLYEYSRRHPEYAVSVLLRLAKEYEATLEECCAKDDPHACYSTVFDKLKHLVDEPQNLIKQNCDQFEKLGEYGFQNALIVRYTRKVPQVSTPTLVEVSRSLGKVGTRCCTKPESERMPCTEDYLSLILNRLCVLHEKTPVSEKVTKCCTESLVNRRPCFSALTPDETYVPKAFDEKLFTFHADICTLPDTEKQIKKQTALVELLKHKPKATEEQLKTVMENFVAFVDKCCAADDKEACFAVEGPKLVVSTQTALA

Results are given in words; binding and its absence hold for the method and conditions named.

The target of the test is ParB (S. pneumoniae D39). The test is described as follows: MST; 100 nM ParB labeled with NT-647, titrated with CpsC/D (4 nM to 92 μM) or BSA (5 nM to 180 μM); Monolith NT.115; 25°C; 50 mM Tris-HCl, 150 mM NaCl, 10 mM MgCl2, 0.05% Tween-20; both purified.

Turning to “BSA (Bovine Serum Albumin) (from UniProt P02769 25-607)”, the binding entry is “no binding (tested: 5 nM to 180 μM BSA)”.
